PubChem BioAssay AID1117269 | University of Michigan – 2014
Purpose: 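Kinome-wide knockdown screen for regulators of TGF-beta reporter output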 (primary screen). Cell system: human A549 lung cancer and 1833 breast cancer (MDA-MB-231-derived) cell lines carrying a stable BTR luciferase reporter. Reagent: siRNA pool against human genes. Timing: 72 h after transfection, then 1 h TGF-beta before the read. Challenge: TGF-beta 10 ng/mL added one hour before luciferin and read-out. Measured: 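BTR reporter bioluminescence as fold change relative to non-targeting siRNA, averaging triplicates per line; knockdown for 72 h, then TGF-beta at 10 ng/mL 1 h prior to reading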. Reading the numbers: fold over scrambled siRNA, A549 and fold over scrambled siRNA, 1833: higher = more reporter light, weaker TGF-beta receptor signalling. Call rule: 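Hit in either line counts as active; per-line hits lie above an upper limit from quartiles of averaged log fold values, in plate and screen-wide analyses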. Meaning of the calls: active = hit in at least one line; inactive = hit in neither line.
The deposit covers 714 reagents; below is a part drawn at random. In the full data, 49 (6.9%) got an active call. 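Active means a hit in at least one line; per-line hit columns show which; some siRNA pools appear more than once.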 Not stated in the record: the amount of reagent.

| Target gene | fold over scrambled siRNA, A549 | fold over scrambled siRNA, 1833 | hit in A549 | hit in 1833 | activity call |
| --- | --- | --- | --- | --- | --- |
| MERTK (GeneID 10461) | 0.389 | 2.27 | not a hit in A549 | not a hit in 1833 | inactive |
| MAP2K3 (GeneID 5606) | 0.723 | 3.27 | not a hit in A549 | not a hit in 1833 | inactive |
| ROCK2 (GeneID 9475) | 4.83 | 0.852 | not a hit in A549 | not a hit in 1833 | inactive |
| LMTK3 (GeneID 114783) | 4.41 | 0.778 | not a hit in A549 | not a hit in 1833 | inactive |
| MAP3K10 (GeneID 4294) | 3.86 | 5.85 | not a hit in A549 | not a hit in 1833 | inactive |
| PIM1 (GeneID 5292) | 0.887 | 1.29 | not a hit in A549 | not a hit in 1833 | inactive |
| ITK (GeneID 3702) | 1.78 | 3.87 | not a hit in A549 | not a hit in 1833 | inactive |
| KCNH2 (GeneID 3757) | 0.667 | 0.556 | not a hit in A549 | not a hit in 1833 | inactive |
| PIK3R5 (GeneID 23533) | 0.808 | 0.762 | not a hit in A549 | not a hit in 1833 | inactive |
| CDADC1 (GeneID 81602) | 1.26 | 0.952 | not a hit in A549 | not a hit in 1833 | inactive |
| MYLK3 (GeneID 91807) | 4.84 | 5.47 | not a hit in A549 | not a hit in 1833 | inactive |
| CDK5R2 (GeneID 8941) | 1.57 | 2.6 | not a hit in A549 | not a hit in 1833 | inactive |
| TESK1 (GeneID 7016) | 2.05 | 3.22 | not a hit in A549 | not a hit in 1833 | inactive |
| MAP2K1 (GeneID 5604) | 0.762 | 1.48 | not a hit in A549 | not a hit in 1833 | inactive |
| DAPK1 (GeneID 1612) | 1.57 | 1.29 | not a hit in A549 | not a hit in 1833 | inactive |
| SRMS (GeneID 6725) | 0.619 | 1.21 | not a hit in A549 | not a hit in 1833 | inactive |
| SCYL1 (GeneID 57410) | 2.29 | 6.37 | not a hit in A549 | not a hit in 1833 | inactive |
| MAP2K2 (GeneID 5605) | 1.86 | 2.95 | not a hit in A549 | not a hit in 1833 | inactive |
| PDK2 (GeneID 5164) | 2.44 | 2.47 | not a hit in A549 | not a hit in 1833 | inactive |
| RPS6KA3 (GeneID 6197) | 2.04 | 0.857 | not a hit in A549 | not a hit in 1833 | inactive |
| AK5 (GeneID 26289) | 0.967 | 5.78 | not a hit in A549 | not a hit in 1833 | inactive |
| MAP3K12 (GeneID 7786) | 2.38 | 1.57 | not a hit in A549 | not a hit in 1833 | inactive |
| DAPK3 (GeneID 1613) | 1.89 | 3.1 | not a hit in A549 | not a hit in 1833 | inactive |

The list goes on, starting with the last 4 of the part before.
| Target gene | fold over scrambled siRNA, A549 | fold over scrambled siRNA, 1833 | hit in A549 | hit in 1833 | activity call |
| --- | --- | --- | --- | --- | --- |
| RPS6KA3 (GeneID 6197) | 2.04 | 0.857 | not a hit in A549 | not a hit in 1833 | inactive |
| AK5 (GeneID 26289) | 0.967 | 5.78 | not a hit in A549 | not a hit in 1833 | inactive |
| MAP3K12 (GeneID 7786) | 2.38 | 1.57 | not a hit in A549 | not a hit in 1833 | inactive |
| DAPK3 (GeneID 1613) | 1.89 | 3.1 | not a hit in A549 | not a hit in 1833 | inactive |
| MAP3K13 (GeneID 9175) | 1.38 | 7.14 | not a hit in A549 | not a hit in 1833 | inactive |
| SNRK (GeneID 54861) | 1.41 | 1.33 | not a hit in A549 | not a hit in 1833 | inactive |
| EEF2K (GeneID 29904) | 1.1 | 1.47 | not a hit in A549 | not a hit in 1833 | inactive |
| CDK6 (GeneID 1021) | 0.569 | 0.746 | not a hit in A549 | not a hit in 1833 | inactive |
| PIK3C3 (GeneID 5289) | 4.2 | 1.67 | not a hit in A549 | not a hit in 1833 | inactive |
| PTK6 (GeneID 5753) | 1.11 | 3.07 | not a hit in A549 | not a hit in 1833 | inactive |
| NUAK2 (GeneID 81788) | 1.24 | 1.74 | not a hit in A549 | not a hit in 1833 | inactive |
| MAP2K7 (GeneID 5609) | 1.54 | 2.6 | not a hit in A549 | not a hit in 1833 | inactive |
| NEK1 (GeneID 4750) | 3.14 | 6.38 | not a hit in A549 | not a hit in 1833 | inactive |
| STK32A (GeneID 202374) | 3.37 | 0.852 | not a hit in A549 | not a hit in 1833 | inactive |
| RET (GeneID 5979) | 0.476 | 1.05 | not a hit in A549 | not a hit in 1833 | inactive |
| PNCK (GeneID 139728) | 5.08 | 4.37 | not a hit in A549 | not a hit in 1833 | inactive |
| FER (GeneID 2241) | 4.33 | 7.39 | not a hit in A549 | not a hit in 1833 | inactive |
| FN3KRP (GeneID 79672) | 1.01 | 0.476 | not a hit in A549 | not a hit in 1833 | inactive |
| PLK4 (GeneID 10733) | 1.56 | 2.48 | not a hit in A549 | not a hit in 1833 | inactive |
| COMMD3 (GeneID 23412) | 3.1 | 2.31 | not a hit in A549 | not a hit in 1833 | inactive |
